{"source": "patent US7201167B2", "about": "“Method and composition for the treatment of lung surfactant deficiency or dysfunction” (Aerogen, Inc., priority 2004, dated 2007)", "experiment": "aerosol delivery with simulated infant breathing pattern during nCPAP (drug collected on filter, HPLC)", "conditions": "PDDS nebulizer in respiratory circuit (FIG. 7b), 0.5 mL of 0.5% albuterol sulfate", "source_text": "FIGS. 7a and 7b are diagrams of nCPAP systems 100 and 200 that may be used for measuring aerosol delivery with a simulated infant breathing pattern during nasal continuous positive airway pressure ([…] systems 100 and 200 comprise breath simulators 101 and 201, consisting of adapters with orifices representing infant size nasal prongs 102 and 202 ([…]=3) connected to absolute filters 103 and 203, attached to reciprocating pump animal ventilators 104 and 204 (Harvard Apparatus) to form a nCPAP system. Lung simulators 100 and 200 may be set to infant ventilatory parameters (VT 10 ml, respiratory rate 40 breaths per minute). A constant oxygen flow of 10 L/min from ventilators 104 and 204 may be used to generate a CPAP of 5 cm H2O regulated by threshold resistors 105 and 205. In both systems, a liquid medicament (0.5 mL of 0.5% albuterol sulfate) may be aerosolized with a nebulizer 106 and 206 placed in a circuit of the nCPAP system. Drug may be collected on filters 103 and 104 placed distal to the nasal prongs 102 and 202, and the collected drug may be assayed using High Pressure Liquid Chromatography (HPLC). […] The efficiency of the nCPAP system may then be measured by expressing the amount of drug collected on the filter as a percentage of the drug dose placed in the nebulizer. […]"}
{"substance": "albuterol sulfate", "values": [{"measurement": "deposition of the medicament dose placed in the nebulizer (drug collected on filter distal to nasal prongs)", "setting": "continuous generation of aerosol, mean ± standard deviation", "value": "26±9", "unit": "%"}, {"measurement": "deposition of the medicament dose placed in the nebulizer (drug collected on filter distal to nasal prongs)", "setting": "intermittent generation of aerosol (interrupted during exhalation)", "value": "40+9%"}]}
